{"source": "patent US9850221B2", "about": "“Sulfated and unsulfated flavonoid oligomers as cancer therapeutics” (VIRGINIA COMMONWEALTH UNIVERSITY, priority 2013, dated 2017)", "test_system": "HT-29 cells", "experiment": "Secondary (2°) and tertiary (3°) colonosphere assay, HT-29 (Screen 2)", "type": "cell-based, human", "details": "cultured in the absence of NSGM after primary treatment at 100 μM", "description": "Secondary (2°) and Tertiary (3°) Colonosphere Assay. For secondary colonospheres, the 96-well plate of primary spheres was centrifuged at speed of 1000 rpm for 1 min and the supernatant was removed. Spheres that settled at the base of the plate were trypsinized with 20 μL/well and single cell suspension was prepared using vigorous mechanical dissociation. The numbers of viable cell were counted with 1:5 ratio of cell:trypan blue and then re-plated at 100 cells/[…] in SCM media in a low adhesion plate. No further treatment with NSGMs was performed. Numbers of spheres were counted as above on day 5. The same method was repeated for tertiary spheres.\nThe 11 sulfated NSGMs were then studied for their effect on 2° and 3° sphere formation (HT-29 and HCT-116) in Screen 2. By design, this screen reflects a test of true self-renewability of CSCs.^2,3 Single cell suspension obtained from primary spheres formed above was then cultured in the absence of NSGM.", "note": "Some of these results come from one statement about several compounds together. For at least one compound, name, drawing or mass did not settle the structure.", "data": [{"molecule": "O=c1c(OS(=O)(=O)[O-])c(-c2ccc(OS(=O)(=O)[O-])c(OS(=O)(=O)[O-])c2)oc2cc(OS(=O)(=O)[O-])cc(OCCCOc3cc(OS(=O)(=O)[O-])cc4oc(-c5ccc(OS(=O)(=O)[O-])c(OS(=O)(=O)[O-])c5)c(OS(=O)(=O)[O-])c(=O)c34)c12.[Na+].[Na+].[Na+].[Na+].[Na+].[Na+].[Na+].[Na+]", "note": "[G2.2]", "values": [{"measurement": "inhibition in 2° sphere formation", "result": "> 50", "unit": "%"}, {"measurement": "inhibition in 3° sphere formation", "result": "> 50", "unit": "%"}]}]}
